Results from PubChem BioAssay AID504444 (National Center for Advancing Translational Sciences (NCATS), 2011).
Out of some 360,000 compounds screened, about 7,500 (2.1%) were called active. Inconclusive results, whose numbers are uncertain, are shown with a selection of clear calls. Calls come from the whole dose curve; as a rule, active = well fitted inhibition curve with a large enough effect; inconclusive = small, poorly fitted or top-dose-only effect, or effect the other way; inactive = flat fitted curve, though single readings scatter. Where the call is inconclusive, the potency comes from a doubtful curve fit.

Assay: Nrf2 qHTS screen for inhibitors; note: nearly all actives have a fitted effect of over 60% in size
Conditions: A549 ARE-Fluc reporter, luciferase luminescence, 18-24 h; series mostly up to 46 µM
Procedure, shortened: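 Quantitative HTS in A549 cells stably bearing an antioxidant response element-firefly luciferase construct. Inhibition of Nrf2-driven transcription was scored by luminescence after 18-24 h of compound exposure at 37 °C.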
Potency is the fitted concentration of half-maximal effect.

SMILES | Potency
Fc1ccccc1Cn1c(-c2ccccc2)nc2ccccc21 | inactive
CO[C@H]1C[C@@H]2CC[C@@H](C)[C@@](O)(O2)C(=O)C(=O)N2CCCC[C@H]2C(=O)O[C@H]([C@H](C)C[C@@H]2CC[C@@H](O)[C@H](OC)C2)CC(=O)[C@H](C)/C=C(/C)[C@@H](O)[C@@H](OC)C(=O)[C@H](C)C[C@H](C)C=C/C=C\C=C/1C | inconclusive: 32.6 µM [falling, single point]
O=C(O)c1cn(C2CC2)c2cc(N3CCN(S(=O)(=O)c4ccc5c(c4)OCCO5)CC3)c(F)cc2c1=O | inconclusive: 18.4 µM [falling, single point]
COC(=O)c1ccc(NC(=S)NCC2CC2)cc1 | inconclusive: 29.1 µM [falling, single point]
CC(=O)c1ccc(NC(=O)COCc2cc(-c3ccco3)on2)cc1 | inconclusive: 29.1 µM [activator, single point]
O=c1c2ccccc2nc(COc2ccccc2)n1/N=C/c1cn[nH]c1-c1ccccc1 | inconclusive: 18.4 µM [falling, single point]
O=C(/C=C/c1ccccc1)NC(=O)c1ccccc1O | inactive
CCN(C(=O)c1cc2c(=O)[nH]c3ccc(C)cc3c2s1)c1ccccc1C | inconclusive: 10.3 µM [falling, partial curve, poor fit]
CCOC(=O)c1c(NC(=O)c2cccs2)sc(CC)c1-c1cccs1 | inconclusive: 13 µM [falling, partial curve, poor fit]
N#Cc1ccc(C(=O)Nc2cc(-c3ccc(F)cc3)nn2-c2ccccc2)cc1 | inconclusive: 18.4 µM [falling, single point]
Cc1ccc(C)c(CSc2nc3ccncc3n2CC(=O)Nc2ccc(N(C)C)cc2)c1 | inconclusive: 0.731 µM [activator, full curve, poor fit]
CN(c1ccc(F)cc1)S(=O)(=O)c1ccc(Cl)c(C(=O)NCC(c2ccco2)N2CCCCC2)c1 (stereo not drawn) | inconclusive: 14.6 µM [falling, single point]
Cc1cccc2nc(-c3cccc(NS(=O)(=O)c4ccccc4)c3)cn12 | inconclusive: 10.3 µM [falling, partial curve, poor fit]
CCOc1ccc(/C=N/OC(C)C(=O)NCc2ccc3c(c2)OCO3)cc1 (stereo not drawn) | inconclusive: 32.6 µM [falling, single point]
Cc1cc(C)c(NC(=O)Nc2ccc3snnc3c2)c(C)c1 | inconclusive: 32.6 µM [falling, single point]
CCCNC(=O)c1ccc(N2CCC3(CC2)CC(c2cccc(Br)c2)=NO3)c(NC(=O)c2ccco2)c1 | inconclusive: 14.6 µM [falling, partial curve, poor fit]
CCOC(=O)c1ccc2c(c1)n(CC)c(C)[n+]2CC | inactive
c1cncc(-c2nc3ccccc3o2)c1 | inconclusive: 14.6 µM [activator, single point]
COC(=O)c1cnn(-c2nc(-c3ccccc3)cs2)c1N | inconclusive: 1.16 µM [activator, partial curve, poor fit]
Cc1ccc(NC(=O)CSc2nc(-c3ccco3)nc3cc(=O)[nH]n23)cc1C | inconclusive: 29.1 µM [activator, single point]
CC(Nc1cccc2ccccc12)C(=O)N/N=C/c1ccc([N+](=O)[O-])cc1 (stereo not drawn) | inactive

SMILES | Potency
Cc1ccc(Cn2nnc3c(=O)[nH]c(C4CCN(S(=O)(=O)c5cc(C)ccc5C)CC4)nc32)cc1 | inconclusive: 18.4 µM [falling, single point]
COc1ccc(-c2cn3cc(C(=O)NN)ccc3n2)cc1 | inconclusive: 2.06 µM [activator, partial curve, poor fit]
CCCc1ccc(C(=O)NC(=O)c2ccccc2O)cc1 | inconclusive: 23.1 µM [falling, partial curve, poor fit]
O=C(CSc1nnc(-c2ccc(OC(F)F)cc2)o1)N1CCOCC1 | inconclusive: 13 µM [activator, partial curve, poor fit]
O=S(=O)(c1cccs1)N1CCN(c2ncccn2)CC1 | inconclusive: 0.116 µM [falling, full curve, poor fit]
Cc1cc(NC(=O)C2CCN(S(=O)(=O)c3ccc4[nH]c(=O)oc4c3)CC2)ccc1Br | inconclusive: 29.1 µM [falling, single point]
O=C(COC(=O)COc1ccccc1)NCCC1=CCCCC1 | inactive
COc1ccc(-c2cc(=Nc3c(C)n(C)n(-c4ccccc4)c3=O)c3ccccc3o2)cc1 | inconclusive: 14.6 µM [activator, single point]
CCOC(=O)C1CCN(C(=O)/C(C)=C\c2ccccc2)CC1 | inconclusive: 14.6 µM [activator, partial curve]
Clc1ccc2noc(-c3ccccc3)c2c1 | inconclusive: 0.82 µM [falling, full curve, poor fit]
CCOC(=O)C1CCN(S(=O)(=O)c2cccc(-c3cn4cc(C)ccc4n3)c2)CC1 | inconclusive: 23.1 µM [falling, partial curve]
CCc1c(C)nc2ncnn2c1NCCc1ccc(Cl)cc1 | active: 7.31 µM
CCOC(=O)C1(Cc2cccc(Cl)c2)CCCN(C(=O)CN2C(=O)CSC2=O)C1 (stereo not drawn) | inconclusive: 5.8 µM [activator, partial curve]
CCOC(=O)Cn1nc(C)c(NC(=O)COc2ccc(Cl)cc2C)c1C | active: 23.1 µM
COc1cc2oc3ccc(C#Cc4ccc(N)cc4)cc3c(=O)c2cc1OC | active: 14.6 µM
Cc1ccc2oc3c(c(=O)c2c1)C(c1cccc(O)c1)N(c1ccccn1)C3=O (stereo not drawn) | inconclusive: 20.6 µM [falling, partial curve, poor fit]
Cc1ccc(-c2cc(C(=O)Oc3ccccc3)c3cc(C)ccc3n2)cc1 | inactive
O=C(Nc1ccc(Cl)cc1)N1CCN(c2ccccc2)CC1 | inactive
C[C@]12c3[nH]c4cc(-c5ccco5)ccc4c3CCN1C(=O)[C@@H](CC(=O)NCC13CC4CC(CC(C4)C1)C3)C[C@@H]2C(=O)N1CCCCC1 | inconclusive: 20.6 µM [falling, single point]
Cn1nc(C(F)(F)F)c(-c2ccc(Br)cc2)c1NC(=O)Nc1ccc(F)cc1F | inconclusive: 29.1 µM [falling, single point]
Cc1ccc(C(=O)/C=C/c2cn(CN3CCN(C)CC3)c3ccccc23)cc1 | inconclusive: 0.58 µM [activator, partial curve, poor fit]

For convenience, part of the list above.
SMILES | Potency
Cc1ccc(-c2cc(C(=O)Oc3ccccc3)c3cc(C)ccc3n2)cc1 | inactive
O=C(Nc1ccc(Cl)cc1)N1CCN(c2ccccc2)CC1 | inactive
C[C@]12c3[nH]c4cc(-c5ccco5)ccc4c3CCN1C(=O)[C@@H](CC(=O)NCC13CC4CC(CC(C4)C1)C3)C[C@@H]2C(=O)N1CCCCC1 | inconclusive: 20.6 µM [falling, single point]

Following part

SMILES | Potency
CC(On1c(-c2ccccc2)nc2ccc(Cl)cc21)C(=O)O (stereo not drawn) | inactive
CCCN(CC(=O)Nc1cc(C)on1)CC(=O)Nc1ccc(F)c(F)c1F | inactive
Cc1c(NC(=O)C(C)Sc2n[nH]c(N)n2)c(=O)n(-c2ccccc2)n1C (stereo not drawn) | inconclusive: 32.6 µM [activator, single point]
O=C(Nc1cccnc1)c1sc(Nc2ccccc2)nc1-c1ccccc1 | inactive
Cc1noc(C)c1S(=O)(=O)Nc1cc(C(F)(F)F)ccc1N1CCOCC1 | inconclusive: 18.4 µM [falling, partial curve]
Cc1cc2occ(CC(=O)N(C)CC(=O)Nc3cccc(F)c3)c2cc1C | active: 25.9 µM
CSc1ccc(CN(C)CC(=O)Nc2c(F)cccc2F)cc1 | inconclusive: 29.1 µM [falling, single point]
O=C(Nc1ccc(Cl)cn1)C1CCCN(c2ncnc3c2nc2n3CCCCC2)C1 (stereo not drawn) | inconclusive: 29.1 µM [falling, single point]
COc1ccc(-c2csc(NC(=O)COc3ccc(N(C)S(=O)(=O)c4ccc(C)cc4)cc3)n2)cc1 | inconclusive: 2.91 µM [falling, full curve, poor fit]
COc1ccc2oc(-c3ccc(C)c(NC(=O)COc4cc(C)cc(C)c4)c3)nc2c1 | inconclusive: 4.61 µM [activator, full curve, poor fit]
Cc1ccc(-n2nc3c(c2NC(=O)C2CCCC2)CS(=O)(=O)C3)cc1 | inconclusive: 14.6 µM [activator, partial curve, poor fit]
Cc1ccc(Cl)cc1NC(=O)C(=O)NCC(c1cccnc1)N1CCc2ccccc21 (stereo not drawn) | inconclusive: 29.1 µM [falling, single point]
CC(=O)NC1=CC(=O)c2nonc2C1=O | active: 2.91 µM
CCCOC(=O)c1ccc(Oc2cn[nH]c2-c2ccc(OCC)cc2O)cc1 | inconclusive: 20.6 µM [falling, single point]
Cc1ccc(C(=O)COC(=O)CNC(=O)c2cccs2)cc1C | inconclusive: 3.66 µM [activator, full curve, poor fit]
COc1ccc(S(=O)(=O)NCCc2c(C)nn(C)c2Oc2ccccc2)cc1 | inconclusive: 18.4 µM [falling, single point]
O=C(Nc1ccn(-c2ccccc2)n1)c1ccc(Cl)cc1 | inactive
CCC1Sc2ccc(S(=O)(=O)CCC(=O)Nc3c(Cl)cc(OC)cc3OC)cc2NC1=O (stereo not drawn) | inconclusive: 29.1 µM [falling, single point]
Cc1ccc(NC(=O)C(Cc2c[nH]c3ccccc23)NC(=O)OCC(C)C)cc1 (stereo not drawn) | inactive
CCCN=C(C)c1c(-c2ccccc2)[nH]n(-c2nc3ccccc3s2)c1=O | inconclusive: 16.4 µM [falling, single point]
COCCN(C(=S)Nc1ccc(C)cc1C)C(C)c1ccco1 (stereo not drawn) | inconclusive: 20.6 µM [activator, partial curve]

Part of the list above, with tabs:
SMILES	Potency
Cc1noc(C)c1S(=O)(=O)Nc1cc(C(F)(F)F)ccc1N1CCOCC1	inconclusive: 18.4 µM [falling, partial curve]
Cc1cc2occ(CC(=O)N(C)CC(=O)Nc3cccc(F)c3)c2cc1C	active: 25.9 µM
